Reference: article PMC7884425
Where a chain is given by its changes, count along the chain named. In names and notes the source's numbering stands. These are yes or no findings as the source states them, for the method shown. For some of these results: Where a sequence is shown, tags or fusion partners need not be part of it. Each block holds one binder with its values, some of them ahead of it.

Sequences of proteins named here, by UniProt entry; tags and fusion partners are left off. A change or cut given only in a name is not applied to a line headed by its entry. Residues count along the entry.
human PARP1 CAT domain, full-length CAT (residues 661-1014) (P09874, residues 661-1014): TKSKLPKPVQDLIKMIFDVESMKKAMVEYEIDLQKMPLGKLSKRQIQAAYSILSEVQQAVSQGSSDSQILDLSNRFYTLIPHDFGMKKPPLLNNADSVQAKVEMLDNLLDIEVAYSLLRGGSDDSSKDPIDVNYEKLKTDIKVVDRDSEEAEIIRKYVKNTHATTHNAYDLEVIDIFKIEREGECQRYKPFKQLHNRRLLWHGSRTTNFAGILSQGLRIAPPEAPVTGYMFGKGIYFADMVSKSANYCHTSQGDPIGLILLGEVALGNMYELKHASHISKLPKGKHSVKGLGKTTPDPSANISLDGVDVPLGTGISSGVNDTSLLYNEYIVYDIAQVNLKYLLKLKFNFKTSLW

What was measured:
[1] = target: human PARP1 CAT domain, full-length CAT (residues 661-1014) (human) (UniProt P09874); assay: ITC; HPF1 wild-type or mutant 0.3 or 0.4 mM in the syringe, PARP1 CAT-ΔHD (or full-length CAT) 0.02 mM in the cell; 25 °C; 20 mM Tris-pH 8.0, 150 mM NaCl, 1 mM TCEP, 1 mM MgCl2; both purified
[2] = target: human PARP1 CAT domain, full-length CAT (residues 661-1014) (human) (UniProt P09874); assay: SEC; 100 μL samples with 50 μM of each protein, on ice at least 30 min; Superdex 200 Increase; 20 mM Tris-pH 8.0, 150 mM NaCl, 1 mM TCEP, 1 mM MgCl2; peak fractions on SDS-PAGE; both purified
[3] = target: human PARP1-CAT ΔHD (661-678-GSGSGSGG-787-1014) (human) (UniProt P09874); assay: condition: 0.3 or 0.4 mM HPF1 in the syringe, 0.02 mM PARP1 CAT-ΔHD in the cell; ITC; HPF1 wild-type or mutant 0.3 or 0.4 mM in the syringe, PARP1 CAT-ΔHD (or full-length CAT) 0.02 mM in the cell; 25 °C; 20 mM Tris-pH 8.0, 150 mM NaCl, 1 mM TCEP, 1 mM MgCl2; both purified

binding [1]: no binding
B1: human HPF1 (histone PARylation factor 1), wild-type (protein, UniProt Q9NWY4 1-346)
chain: MVGGGGKRRPGGEGPQCEKTTDVKKSKFCEADVSSDLRKEVENHYKLSLPEDFYHFWKFCEELDPEKPSDSLSASLGLQLVGPYDILAGKHKTKKKSTGLNFNLHWRFYYDPPEFQTIIIGDNKTQYHMGYFRDSPDEFPVYVGINEAKKNCIIVPNGDNVFAAVKLFLTKKLREITDKKKINLLKNIDEKLTEAARELGYSLEQRTVKMKQRDKKVVTKTFHGAGLVVPVDKNDVGYRELPETDADLKRICKTIVEAASDEERLKAFAPIQEMMTFVQFANDECDYGMGLELGMDLFCYGSHYFHKVAGQLLPLAYNLLKRNLFAEIIEEHLANRSQENIDQLAA
binding [2]: no binding (tested: 50 μM of each protein)

binding [3]: no binding
B2: human HPF1 D283H (protein, UniProt Q9NWY4 1-346)
chain: B1 chain with D283H

binding [3]: no binding
B3: human HPF1 F268S (protein, UniProt Q9NWY4 1-346)
chain: B1 chain with F268S
